In PubChem BioAssay AID1259415 (National Center for Advancing Translational Sciences (NCATS), 2018):
Hit rate of the full screen: of about 410,000 compounds, about 18,000 (4.4%) were called active. Inconclusive results, whose numbers are uncertain, are shown with a selection of clear calls. Cut-off read from the data, not from the text of the source: active = activity change below about -60%; inconclusive = no clear call, values can overlap the other calls; inactive = above about -39%. The source holds several records for some structures; these can differ, active in one and inactive in another.

experiment: qHTS Assay for inhibitors of the human cytomegalovirus (HCMV); conditions: HFF cells, HCMV-luciferase reporter, 72 h; at 57.5 µM; hits give low values
In short: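 Steps: HFFs plated, 16 h 37C; compounds added; HCMV-luciferase added to MOI 1 PFU/cell; 72 h 37C; OneGlo reagent, 5 min room temperature; luminescence read, normalized to controls.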
% is set by controls: 0 for no effect and ±100 for the full control effect.

Structure (SMILES)	activity change, negative = inhibition
CN1N=C(C(C)(C)C)CC1=O	inconclusive: -41.7%
COc1ccccc1N(C)S(=O)(=O)c1ccc(C(=O)Nc2ncc(C)s2)cc1	inconclusive: -45.7%
OCCNCc1cccc(OCc2ccccc2Cl)c1	inconclusive: -49.2%
COc1ccc(/C=C2/SC(=O)N(CCNC(=O)C3CC(=O)N(Cc4ccccc4)C3)C2=O)cc1 (stereo not drawn)	inconclusive: -43.7%
CCOC(=O)c1c(NC(=O)c2cccc([N+](=O)[O-])c2C(=O)O)sc2c1CCCC2	inconclusive: -56.3%
CCN(c1ccccc1)S(=O)(=O)c1ccc(Cl)c(NC(=O)CSc2nncn2C)c1	inconclusive: -48%
CCc1noc(C)c1C(=O)Nc1nc(-c2ccc(F)cc2)c(C)s1	inconclusive: -45.9%
Cc1ccc2cc(CN(CCN3CCOCC3)C(=O)NCc3ccccc3)c(=O)[nH]c2c1C	inactive: -21%
O=C(Nc1cnccn1)c1ccc(Cl)cc1	inconclusive: -41%
CCn1c(CN2CCCCC2)nc2cc(S(=O)(=O)N3CCCCC3)ccc21	inconclusive: -40.4%
O=C(Nc1nnc(COc2ccc(Cl)cc2)s1)C1CCCO1 (stereo not drawn)	inconclusive: -40.5%
Cc1ccc(-c2noc(C3CCCN(C(=O)c4ccccc4Br)C3)n2)cc1 (stereo not drawn)	inconclusive: -42.6%
CCc1cc(=O)oc2c(C)c(OC(C)C(=O)NCCCn3ccnc3)ccc12 (stereo not drawn)	inconclusive: -45.4%
CC1C2NC(=O)N(Cc3ccccc3)C1(C)Oc1ccccc12 (stereo not drawn)	inactive: -20.5%
Cc1ccc(Sc2ncccc2NC(=O)c2ccccc2Cl)cc1	inconclusive: -46.3%
O=C(O)CCCC(=O)N1CC(=O)Nc2ccccc21	inconclusive: -59.1%
COc1ccc(/C=C/C(=O)C(C(N)=O)=C2SCCS2)cc1	active: -101%
COc1ccc(NC(=S)NCC(c2cccnc2)N2CCOCC2)cc1 (stereo not drawn)	inconclusive: -40%
Fc1ccc2c(c1)C(c1cccnc1)=NNC(c1cccs1)=N2	inconclusive: -51.5%
CC(C)C[C@@H](C)C(=O)N(Cc1ccccc1)c1ccccc1	inconclusive: -57.7%
Cc1oc(-c2ccccc2Cl)nc1Cn1cccc1C1=NC(c2ccccc2)CO1 (stereo not drawn)	inconclusive: -55.8%
O=C(Nc1ccc2oc(-c3cccc(Cl)c3Cl)nc2c1)c1cccc(Br)c1	active: -74.4%

Structure (SMILES)	activity change, negative = inhibition
CCOC(=O)c1cc2c(ccn2C)n1CC(=O)N(Cc1ccccc1)c1ccccc1	inconclusive: -45.2%
CC(C)CCN(C(=O)c1csnn1)C(C(=O)NC1CCCCC1)c1ccc(F)cc1 (stereo not drawn)	inconclusive: -46.6%
O=C(NCc1ccco1)c1ccc(Cn2c(=O)c3sccc3n(Cc3cccc(F)c3)c2=O)cc1	active: -60.9%
COc1ccc(Nc2nc(N)nc(CSC(=S)N3CCN(c4ccccc4)CC3)n2)cc1	inconclusive: -48.4%
O=C(COc1ccccc1)Nc1nnc(COc2ccccc2)s1	inconclusive: -41.4%
CCCCOC(=O)Cn1c(-c2ccccc2)nc2ccccc2c1=O	active: -76.3%
Cc1ccc(N(CC(=O)NCc2ccc(F)cc2)C(=O)c2csnn2)c(C)c1	inconclusive: -52%
CCCCN(C=O)c1c(CC)nc2ccc(C(=O)N3CCN(C(C)=O)CC3)cn12	inactive: 17.4%
CNS(=O)(=O)c1cccc(C(=O)OCC(=O)NCCCc2ccccc2)c1	inactive: 43.8%
Nc1c(C(=O)Nc2ccc(Br)cc2)sc2nc(-c3ccncc3)ccc12	inconclusive: -40.8%
CC(C)(CN1CCc2ccccc2C1)NS(=O)(=O)c1ccc(Cl)cc1	inactive: -28.5%
C=CCSC(=S)NC1CCS(=O)(=O)C1 (stereo not drawn)	inconclusive: -44.2%
C/C(=N\NC(=O)CNC(=O)c1ccco1)c1ccc(Br)cc1	inconclusive: -44%
CC1Cc2ccccc2N1S(=O)(=O)c1cccc(C(=O)NCCCn2ccnc2)c1 (stereo not drawn)	inconclusive: -44.7%
CCN(CC)c1ccc(/C=N/NC(=O)c2ccco2)c(O)c1	active: -103%
O=C1C2C(c3ccccc3)CC=CC2[C@H](c2ccc(C(F)(F)F)cc2)N1Cc1ccccc1 (stereo partly drawn)	active: -84.5%
CC(C)C[C@@H](CN1CCCC1CN1C(=S)NC[C@@H]1Cc1ccccc1)N1C[C@H](Cc2ccccc2)N(CC2CCCCC2)C1=S (stereo partly drawn)	inactive: -10.5%
Clc1ccc(Cn2ncc3c(N4CCN(c5ccccc5)CC4)ncnc32)cc1	active: -102%
Cc1ccccc1OCCC(=O)N(CC(C)C)c1c(N)n(Cc2ccccc2)c(=O)[nH]c1=O	inconclusive: -51.9%
Cc1cc(C(=O)CCC(=O)NCC(=O)Nc2c(C)cccc2C)c(C)s1	inconclusive: -40.1%
COc1ccccc1N(O)C1CC(=O)N(c2ccc(Br)cc2)C1=O (stereo not drawn)	inactive: -23.2%
COc1cc2cc(C(=O)N/N=C/c3ccc(F)cc3)[nH]c2cc1OC	inconclusive: -59.3%

Another view of five compounds above.
Structure (SMILES) | activity change, negative = inhibition
CCOC(=O)c1cc2c(ccn2C)n1CC(=O)N(Cc1ccccc1)c1ccccc1 | inconclusive: -45.2%
CC(C)CCN(C(=O)c1csnn1)C(C(=O)NC1CCCCC1)c1ccc(F)cc1 (stereo not drawn) | inconclusive: -46.6%
O=C(NCc1ccco1)c1ccc(Cn2c(=O)c3sccc3n(Cc3cccc(F)c3)c2=O)cc1 | active: -60.9%
COc1ccc(Nc2nc(N)nc(CSC(=S)N3CCN(c4ccccc4)CC3)n2)cc1 | inconclusive: -48.4%
O=C(COc1ccccc1)Nc1nnc(COc2ccccc2)s1 | inconclusive: -41.4%

(next part)

Structure (SMILES)	activity change, negative = inhibition
CCOc1ccc(NC(=O)NCCN2CCN(c3ccccc3F)CC2)cc1	inconclusive: -43.2%
CCOC(=O)c1cc(-c2ccc(F)cc2)n(CCC(=O)NC2CCCCC2)c1C	inactive: 0%
Cc1nn(-c2ccc(F)cc2)c(Cl)c1/C=C(\CCC(=O)O)c1nc2ccccc2s1	inactive: 44.6%
CC(C)(C)C(=O)Cn1ncc(Cl)c(Cl)c1=O	active: -100%
CC(=O)c1cccc(-c2csc3ncnc(Sc4nnnn4C)c23)c1	inconclusive: -48.4%
CN(Cc1cnc2nc(N)nc(N)c2n1)c1ccc(C(=O)NC(CCC(=O)O)C(=O)O)cc1 (stereo not drawn)	active: -96.6%
Cc1cccc(NC(=O)Cn2c(=O)n(CCC(=O)N3CCc4ccccc4C3)c(=O)c3ccccc32)c1	inactive: -2.14%
O=C(CCN1CCC(c2ccccc2)C1)c1cccs1 (stereo not drawn)	inconclusive: -42.3%
COc1ccc(NS(=O)(=O)c2cccc(C(=O)NNC(=O)c3ccc(=O)[nH]c3)c2)cc1	inactive: -1.05%
Cc1ccc(C(=O)Nc2cccnc2)cc1[N+](=O)[O-]	inconclusive: -43.8%
N#Cc1c(N)n[nH]c1-c1cc2c([nH]1)CCCC2	inconclusive: -53.7%
CC1(C(=O)NCc2ccccn2)CCN1C(=O)Cc1ccc(Cl)cc1Cl (stereo not drawn)	inconclusive: -59.4%
CCN1CCN(S(=O)(=O)c2ccc(Cl)c(C(=O)NC3CC3)c2)CC1	inconclusive: -42.6%
c1ccc(-c2csc3ncnc(N4CCOCC4)c23)cc1	inactive: -37.8%
Cc1nc(NC(=O)c2c(-c3ccccc3Cl)noc2C)sc1C	inconclusive: -49.6%
Oc1ccc(O)c(-c2cnns2)c1	inconclusive: -56.7%
O=S(=O)(c1cccc(C(F)(F)F)c1)N1CCC(Oc2ccc(-n3cnnn3)cc2)CC1	inconclusive: -40.7%
C=CCn1c(-c2ccccc2)cc(SC)c(C#N)c1=O	inconclusive: -48.1%
Cn1cc(C(=O)CCl)c2ccccc21	active: -98.2%
COC(=O)Nc1c(-c2ccccc2)nc2ccccn12	inactive: -22.5%
CCCCC(=O)NCCc1cc2ccc(OC)cc2[nH]c1=O	inconclusive: -52.5%
CCCOc1ccc(C2C(=O)N(C3CCCCCC3)CC(=O)N2Cc2ccc(OC)cc2)cc1OC (stereo not drawn)	inconclusive: -47%

Structure (SMILES)	activity change, negative = inhibition
Cc1cc(N(CCCl)CCCl)ccc1/C=N/NC(=O)c1ccco1	inconclusive: -45.4%
CC(C)[C@H](NC(=O)c1ccc(Cl)cc1Cl)C(=O)N1CCC[C@H]1C(=O)NCCc1ccccc1Cl	inactive: -7.45%
O=c1[nH]c2ccccc2cc1CN(Cc1cccnc1)S(=O)(=O)c1ccc([N+](=O)[O-])cc1	inconclusive: -52.6%
CN(CC(=O)Nc1cccc(F)c1)CC(=O)Nc1ccccc1[N+](=O)[O-]	active: -87.3%
CCn1c(SC)nnc1C1CCN(CC(=O)Nc2ccccc2N2CCOCC2)CC1	inactive: -19.3%
CCOC(=O)N1CCN(C(=O)COC(=O)c2cc(Cl)c(O)c(Cl)c2)CC1	active: -73.5%
CC(=O)c1ccc(-n2cc(-c3ccc(C(C)(C)C)cc3)[n+]3c2SCCC3)cc1	active: -98.3%
CCOc1ccccc1C(=O)N1CCN(c2ccc(C(F)(F)F)cn2)CC1	inconclusive: -41.7%
COC(=O)C1(Cc2ccc(O)c(CC3OC3(C)C)c2)OC(=O)C(O)=C1c1ccc(O)cc1 (stereo not drawn)	inactive: 0%
CC1=CCC2C(=O)N(c3cccc(C(=O)Nc4ccccc4Cl)c3)C(=O)C2C1 (stereo not drawn)	inactive: 5.79%
O=C(O)C(C(=O)O)=C1C2CC3CC(C2)CC1C3	inconclusive: -59.2%
Nc1nc(Nc2ccccc2)nc(NCc2ccccc2)c1[N+](=O)[O-]	active: -75.2%
O=[N+]([O-])c1ccc(O)c(/C=N/Nc2ccccn2)c1	active: -102%
O=C(CSc1nc(=O)n2cc(Cl)ccc2n1)Nc1cccc2ccccc12	inactive: -4.26%
COc1ccc(-c2ccc3c(c2)S(=O)(=O)c2cccc(C(=O)NC4CCCC4)c2C3=O)cc1OC	inconclusive: -45.1%
COc1ccc(NC(=O)c2cnn(-c3ccccc3)c2C)cc1OC	inactive: 115%
CCCCC(CC)C(=O)NCc1ccc(F)cc1 (stereo not drawn)	inconclusive: -44%
O=C(CN1C(=O)CCC1=O)Nc1nc(-c2ccc3ccccc3c2)cs1	inconclusive: -47.5%
CCCCCCSc1cccc(-c2nc3ccccn3c2NCc2ccccc2)c1	active: -65.3%
CCN(CC)C(=O)c1cc(S(=O)(=O)N2CCCCC2)c[nH]1	inactive: -0.146%
O=C(O)c1csc(Cc2ccccc2)n1	inactive: -29.5%
Cc1sc2ncn(CC(=O)N3CCN(c4ccccc4F)CC3)c(=O)c2c1S(=O)(=O)N1CCN(c2ncccn2)CC1	inconclusive: -54.7%
